From USRE47223 (Genentech, dated 2019)
Results are given in words; binding and its absence hold for the method and conditions named. Some binding calls cover weakened binding; strength is not graded here.

Experiments:
[1] = target: T1, CA125, human TAT10772 shed antigen (human, UniProt Q8WXI7 1-14451, limits assumed); assay: phage-displayed Fab on immobilized CA125
T1 construct: domain: entire shed antigen; Bought reagent; also called CA125 polypeptide

[2] = target: T1, CA125, human TAT10772 shed antigen; assay: Biacore, soluble Fab

B1: 11D10 HVR graft, Fab (Fab, V domains shown)
VH: EVQLVESGGGLVQPGGSLRLSCAASGFNIKDTYMHWVRQAPGKGLEWVGRVDPANGNTKYDPKFQGRFTISADTSKNTAYLQMNSLRAEDTAVYYCVRDYYGHTYGFAFWGQGTLVTVSS
VL: DIQMTQSPSSLSASVGDRVTITCTASSSVSSSYLHWYQQKPGKAPKLLIYSTSNLASGVPSRFSGSGSGTDFTLTISSLQPEDFATYYCHQYHRSPYTFGQGTKVEIKR
Question: B1 was tested. Which binding [1] did it give?
Answer: binds

Question: And the binding [2]?
Answer: binds
